Here are results for 1 substance from paper PMC5309844.

Sequences of proteins named here, by UniProt entry; tags and fusion partners are left off. Residues count along the entry.
UniProt P08482: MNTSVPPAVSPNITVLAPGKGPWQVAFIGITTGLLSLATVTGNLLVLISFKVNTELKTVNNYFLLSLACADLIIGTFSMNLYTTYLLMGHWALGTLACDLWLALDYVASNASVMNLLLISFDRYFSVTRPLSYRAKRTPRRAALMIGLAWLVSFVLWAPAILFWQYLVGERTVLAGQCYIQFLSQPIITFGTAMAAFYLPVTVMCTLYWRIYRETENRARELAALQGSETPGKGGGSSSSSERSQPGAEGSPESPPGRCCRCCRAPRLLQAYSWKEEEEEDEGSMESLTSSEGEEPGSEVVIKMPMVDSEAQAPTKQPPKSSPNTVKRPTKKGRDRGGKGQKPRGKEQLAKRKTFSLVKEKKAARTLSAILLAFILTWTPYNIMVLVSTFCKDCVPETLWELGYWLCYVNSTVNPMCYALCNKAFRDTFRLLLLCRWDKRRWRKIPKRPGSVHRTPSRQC
UniProt P04785, residues 20-509: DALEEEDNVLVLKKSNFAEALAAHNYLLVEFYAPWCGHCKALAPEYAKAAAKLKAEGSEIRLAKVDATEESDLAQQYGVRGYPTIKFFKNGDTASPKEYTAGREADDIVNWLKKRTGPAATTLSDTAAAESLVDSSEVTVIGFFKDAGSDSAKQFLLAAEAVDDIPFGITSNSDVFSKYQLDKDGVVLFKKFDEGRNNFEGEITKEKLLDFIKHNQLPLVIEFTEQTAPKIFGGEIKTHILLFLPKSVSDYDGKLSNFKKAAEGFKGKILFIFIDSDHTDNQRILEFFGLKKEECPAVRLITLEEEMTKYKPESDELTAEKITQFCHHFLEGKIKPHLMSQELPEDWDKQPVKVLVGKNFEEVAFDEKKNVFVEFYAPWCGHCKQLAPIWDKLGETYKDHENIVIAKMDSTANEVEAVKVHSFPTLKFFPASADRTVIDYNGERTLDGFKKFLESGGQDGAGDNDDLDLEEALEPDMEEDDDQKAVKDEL

Experiment in all cases: co-IP; rat hippocampal tissue lysed in RIPA buffer; equal amounts of total protein precipitated with the appropriate primary antibodies and protein G sepharose at 4 °C overnight; Western blot; normal, chronic epileptic, and control siRNA- or PDI siRNA-infused epileptic animals
On the technique in general: Immunoblotting shows a protein as a band on a membrane.

Experiment [1] addresses NMDA receptor NR1 subunit (rat (endogenous in hippocampus)) (UniProt P35439).
The target of experiment [2] is muscarinic acetylcholine 1 receptor (rat (endogenous in hippocampus)) (UniProt P08482).
The target of experiment [3] is NMDA receptor NR2A subunit (rat (endogenous in hippocampus)) (UniProt Q00959).

No constants are given. Whether binding was seen depends on the method and setting. Binding seen in cells or lysates may run through a third protein. Some results given as binding are weak or reduced against the parent protein; the word gives no strength.

As to “Protein disulfide isomerase (from UniProt P04785 20-509) (enzyme)”, the binding result in experiment [1] is listed as “binds”; in experiment [2] it was “binds weakly”; in experiment [3], “binds”.
